The chains behind the UniProt entries cited, without tags or fusion partners. Residues count along the entry.
UniProt Q02763, 23-1124: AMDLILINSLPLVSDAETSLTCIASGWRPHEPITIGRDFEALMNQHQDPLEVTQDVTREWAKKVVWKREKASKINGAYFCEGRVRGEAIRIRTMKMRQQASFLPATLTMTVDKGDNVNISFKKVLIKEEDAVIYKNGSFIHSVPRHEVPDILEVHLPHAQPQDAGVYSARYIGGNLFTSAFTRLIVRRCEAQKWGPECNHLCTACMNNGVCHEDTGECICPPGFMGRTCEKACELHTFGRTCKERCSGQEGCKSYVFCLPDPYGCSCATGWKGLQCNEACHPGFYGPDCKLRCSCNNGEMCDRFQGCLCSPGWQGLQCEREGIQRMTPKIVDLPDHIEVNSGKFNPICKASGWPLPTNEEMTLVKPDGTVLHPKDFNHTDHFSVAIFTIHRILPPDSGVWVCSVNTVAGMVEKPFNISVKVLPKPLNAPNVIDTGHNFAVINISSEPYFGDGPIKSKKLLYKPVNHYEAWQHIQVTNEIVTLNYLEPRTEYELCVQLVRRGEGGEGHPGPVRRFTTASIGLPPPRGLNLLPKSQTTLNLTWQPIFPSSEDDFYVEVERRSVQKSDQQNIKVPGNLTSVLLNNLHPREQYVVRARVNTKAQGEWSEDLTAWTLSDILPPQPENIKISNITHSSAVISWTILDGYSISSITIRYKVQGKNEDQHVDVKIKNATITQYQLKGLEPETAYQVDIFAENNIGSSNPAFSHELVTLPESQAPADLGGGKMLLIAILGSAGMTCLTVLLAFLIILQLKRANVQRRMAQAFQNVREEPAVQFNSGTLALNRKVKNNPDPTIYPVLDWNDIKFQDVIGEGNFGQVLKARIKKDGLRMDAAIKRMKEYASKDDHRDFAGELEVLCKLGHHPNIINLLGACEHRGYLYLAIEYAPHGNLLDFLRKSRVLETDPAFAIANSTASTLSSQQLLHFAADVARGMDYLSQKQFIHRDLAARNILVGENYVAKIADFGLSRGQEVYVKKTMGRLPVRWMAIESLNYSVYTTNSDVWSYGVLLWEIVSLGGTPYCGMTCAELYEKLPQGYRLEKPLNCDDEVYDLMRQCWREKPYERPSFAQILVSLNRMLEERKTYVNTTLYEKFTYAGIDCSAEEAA

Some results were stated once for a whole list of compounds, not compound by compound.
Each compound was assayed against Tie-2 kinase enzyme (Homo sapiens, UniProt Q02763) (assay: Tie-2 Homogenous Time Resolved Fluorescent (HTRF) kinase assay). Details: read-out: IC50's for the inhibition of Tie-2 as measured by the HTRF assay.
Type: biochemical
With CNc1nccc(-c2cccnc2Oc2cc(F)cc(C(=O)Nc3cc(C(F)(F)F)ccc3N(C)CCCN(C)C)c2)n1 [Example 502, N-(2-((3-(dimethylamino)propyl) (methyl)amino)-5-(trifluoromethyl)phenyl)-3-fluoro-5-((3-(2-(methylamino)-4-pyrimidinyl)-2-pyridinyl)oxy)benzamide] the IC50 was < 5 µM.
With CNc1nccc(-c2cccnc2Oc2ccc(F)c(C(=O)Nc3cc(C(C)C)ccc3N(C)CCCN(C)C)c2)n1 [Example 503, N-(2-((3-(dimethylamino)propyl) (methyl)amino)-5-(1-methylethyl)phenyl)-2-fluoro-5-((3-(2-(methylamino)-4-pyrimidinyl)-2-pyridinyl)oxy)benzamide] the IC50 was < 5 µM.
For CNc1ncnc(-c2cccnc2Oc2ccc(F)c(C(=O)Nc3cccc(C(C)C)c3)c2)n1 [Example 504, 2-fluoro-5-((3-(4-(methylamino)-1,3,5-triazin-2-yl)-2-pyridinyl)oxy)-N-(3-(1-methylethyl)phenyl) benzamide], the IC50 was < 5 µM.
CNc1nccc(-c2cccnc2Oc2ccc(F)c(C(=O)Nc3cccc(C(C)C)c3)c2)n1 [Example 505, 2-fluoro-5-((3-(2-(methylamino)-4-pyrimidinyl)-2-pyridinyl)oxy)-N-(3-(1-methylethyl)phenyl) benzamide] was tested, and the IC50 was < 5 µM.
CNc1ncnc(-c2cccnc2Oc2cc(F)cc(C(=O)Nc3cc(C(F)(F)F)ccc3N(C)CCCN(C)C)c2)n1 [Example 506, N-(2-((3-(dimethylamino)propyl) (methyl)amino)-5-(trifluoromethyl)phenyl)-3-fluoro-5-((3-(4-(methylamino)-1,3,5-triazin-2-yl)-2-pyridinyl)oxy)benzamide] was tested, and the IC50 was < 5 µM.
CNc1nccc(-c2cccnc2Oc2ccc(F)c(C(=O)Nc3cc(C(F)(F)F)ccc3N(C)[C@@H]3CCN(C)C3)c2)n1 [Example 508, 2-fluoro-5-((3-(2-(methylamino)-4-pyrimidinyl)-2-pyridinyl)oxy)-N-(2-(methyl((3R)-1-methyl-3-pyrrolidinyl)amino)-5-(trifluoromethyl)phenyl) benzamide] was tested, and the IC50 was < 5 µM.
For CNc1nccc(-c2cccnc2Oc2ccc(F)c(C(=O)Nc3cc(C(F)(F)F)ccc3N(C)[C@H]3CCN(C)C3)c2)n1 [Example 509, 2-fluoro-5-((3-(2-(methylamino)-4-pyrimidinyl)-2-pyridinyl)oxy)-N-(2-(methyl(1-methyl-3-pyrrolidinyl)amino)-5-(trifluoromethyl)phenyl) benzamide], the IC50 was < 5 µM.
CNc1ncnc(-c2cccnc2Oc2ccc(F)c(C(=O)Nc3cc(C(C)(C)C)ccc3N(C)CCCN(C)C)c2)n1 [Example 510, N-(2-((3-(dimethylamino)propyl) (methyl)amino)-5-(1,1-dimethylethyl)phenyl)-2-fluoro-5-((3-(4-(methylamino)-1,3,5-triazin-2-yl)-2-pyridinyl)oxy)benzamide] was tested, and the IC50 was < 5 µM.
In the case of CNc1nccc(-c2cccnc2Oc2ccc(F)c(C(=O)Nc3cc(C(F)(F)F)ccc3C(C)(C)CN(C)C)c2)n1 [Example 511, N-(2-(2-(dimethylamino)-1,1-dimethylethyl)-5-(trifluoromethyl)phenyl)-2-fluoro-5-((3-(2-(methylamino)-4-pyrimidinyl)-2-pyridinyl)oxy)benzamide], the IC50 is reported as < 5 µM.
With CNc1nccc(-c2cccnc2Oc2ccc(F)c(C(=O)Nc3cc(C(C)(C)C)ccc3N(C)CCCN(C)C)c2)n1 [Example 513, N-(2-((3-(dimethylamino)propyl) (methyl)amino)-5-(1,1-dimethylethyl)phenyl)-2-fluoro-5-((3-(2-(methylamino)-4-pyrimidinyl)-2-pyridinyl)oxy)benzamide] the IC50 was < 5 µM.
For CNc1cc(-c2cccnc2Oc2ccc(F)c(C(=O)Nc3cc(C(F)(F)F)ccc3N3CC[C@@H](N(C)C)C3)c2)ccn1 [Example 515, N-(2-((3R)-3-(dimethylamino)-1-pyrrolidinyl)-5-(trifluoromethyl)phenyl)-2-fluoro-5-((2′-(methylamino)-3,4′-bipyridin-2-yl)oxy)benzamide], the IC50 was < 5 µM.
For C#Cc1ccc(N(C)CCCN(C)C)c(NC(=O)c2cc(Oc3ncccc3-c3ccnc(NC)n3)ccc2F)c1 [Example 518, N-(2-((3-(dimethylamino)propyl) (methyl)amino)-5-ethynylphenyl)-2-fluoro-5-((3-(2-(methylamino)-4-pyrimidinyl)-2-pyridinyl)oxy)benzamide], the IC50 was < 5 µM.
With C#Cc1ccc(N(C)CCCN(C)C)c(NC(=O)c2cc(Oc3ncccc3-c3ncnc(NC)n3)ccc2F)c1 [Example 519, N-(2-((3-(dimethylamino)propyl) (methyl)amino)-5-ethynylphenyl)-2-fluoro-5-((3-(4-(methylamino)-1,3,5-triazin-2-yl)-2-pyridinyl)oxy)benzamide] the IC50 was < 5 µM.
CNc1nccc(-c2cccnc2Oc2ccc(F)c(C(=O)Nc3cc(C(F)(F)C(F)(F)F)ccc3N(C)CCCN(C)C)c2)n1 [Example 520, N-(2-((3-(dimethylamino)propyl) (methyl)amino)-5-(pentafluoroethyl)phenyl)-2-fluoro-5-((3-(2-(methylamino)-4-pyrimidinyl)-2-pyridinyl)oxy)benzamide] was tested, and the IC50 was < 5 µM.
With CNc1ncnc(-c2cccnc2Oc2ccc(F)c(C(=O)Nc3cc(C(F)(F)C(F)(F)F)ccc3N(C)CCCN(C)C)c2)n1 [Example 521, N-(2-((3-(dimethylamino)propyl) (methyl)amino)-5-(pentafluoroethyl)phenyl)-2-fluoro-5-((3-(4-(methylamino)-1,3,5-triazin-2-yl)-2-pyridinyl)oxy)benzamide] the IC50 was < 5 µM.
With CNc1cc(-c2cccnc2Oc2ccc(F)c(C(=O)Nc3cc(C(F)(F)F)ccc3N(C)CCCN(C)C)c2)ccn1 [Example 522, N-(2-((3-(dimethylamino)propyl) (methyl)amino)-5-(trifluoromethyl)phenyl)-2-fluoro-5-((2′-(methylamino)-3,4′-bipyridin-2-yl)oxy)benzamide] the IC50 was < 5 µM.
For CNc1cc(-c2cccnc2Oc2ccc(F)c(C(=O)Nc3cc(C(C)(C)C)ccc3N(C)CCCN(C)C)c2)ccn1 [Example 523, N-(2-((3-(dimethylamino)propyl) (methyl)amino)-5-(1,1-dimethylethyl)phenyl)-2-fluoro-5-((2′-(methylamino)-3,4′-bipyridin-2-yl)oxy)benzamide], the IC50 was < 5 µM.
For CNc1nccc(-c2cccnc2Oc2ccc(F)c(C(=O)Nc3cc(Br)ccc3N(C)CCCN(C)C)c2)n1 [Example 524, N-(5-bromo-2-((3-(dimethylamino)propyl) (methyl)amino)phenyl)-2-fluoro-5-((3-(2-(methylamino)-4-pyrimidinyl)-2-pyridinyl)oxy)benzamide], the IC50 was < 5 µM.
For CNc1nccc(-c2cccnc2Oc2ccc(F)c(C(=O)Nc3cc(C(F)(F)F)cc(Cl)c3N(C)CCCN(C)C)c2)n1 [Example 525, N-(3-chloro-2-((3-(dimethylamino)propyl) (methyl)amino)-5-(trifluoromethyl)phenyl)-2-fluoro-5-((3-(2-(methylamino)-4-pyrimidinyl)-2-pyridinyl)oxy)benzamide], the IC50 was < 5 µM.
CNc1ncnc(-c2cccnc2Oc2ccc(F)c(C(=O)Nc3cc(C(F)(F)F)cc(Cl)c3N(C)CCCN(C)C)c2)n1 [Example 526, N-(3-chloro-2-((3-(dimethylamino)propyl) (methyl)amino)-5-(trifluoromethyl)phenyl)-2-fluoro-5-((3-(4-(methylamino)-1,3,5-triazin-2-yl)-2-pyridinyl)oxy)benzamide] was tested, and the IC50 was < 5 µM.
In the case of CNc1nccc(-c2cccnc2Oc2ccc(F)c(C(=O)Nc3cc(Cl)ccc3N(C)CCCN(C)C)c2)n1 [Example 527, N-(5-chloro-2-((3-(dimethylamino)propyl) (methyl)amino)phenyl)-2-fluoro-5-((3-(2-(methylamino)-4-pyrimidinyl)-2-pyridinyl)oxy)benzamide], the IC50 is reported as < 5 µM.
With CNc1ncnc(-c2cccnc2Oc2ccc(F)c(C(=O)Nc3cc(C4CCN(C)CC4)cc(C(F)(F)F)c3)c2)n1 [Example 528, 2-fluoro-5-((3-(4-(methylamino)-1,3,5-triazin-2-yl)-2-pyridinyl)oxy)-N-(3-(1-methyl-4-piperidinyl)-5-(trifluoromethyl)phenyl) benzamide] the IC50 was < 5 µM.
CNc1nccc(-c2cccnc2Oc2ccc(F)c(C(=O)Nc3cc(C4CC4)ccc3N(C)CCCN(C)C)c2)n1 [Example 530, N-(5-cyclopropyl-2-((3-(dimethylamino)propyl) (methyl)amino)phenyl)-2-fluoro-5-((3-(2-(methylamino)-4-pyrimidinyl)-2-pyridinyl)oxy)benzamide] was tested, and the IC50 was < 5 µM.
In the case of CNc1ncnc(-c2cccnc2Oc2ccc(F)c(C(=O)Nc3cc(C4CC4)ccc3N(C)CCCN(C)C)c2)n1 [Example 531, N-(5-cyclopropyl-2-((3-(dimethylamino)propyl) (methyl)amino)phenyl)-2-fluoro-5-((3-(4-(methylamino)-1,3,5-triazin-2-yl)-2-pyridinyl)oxy)benzamide], the IC50 is reported as < 5 µM.
For CNc1ncnc(-c2cccnc2Oc2ccc(F)c(C(=O)Nc3cc(Cl)ccc3N(C)CCCN(C)C)c2)n1 [Example 532, N-(5-chloro-2-((3-(dimethylamino)propyl) (methyl)amino)phenyl)-2-fluoro-5-((3-(4-(methylamino)-1,3,5-triazin-2-yl)-2-pyridinyl)oxy)benzamide], the IC50 was < 5 µM.
CNc1nccc(-c2cccnc2Oc2ccc(F)c(C(=O)Nc3cc(C(F)(F)F)ccc3CN(C)C)c2)n1 [Example 534, N-(2-((dimethylamino)methyl)-5-(trifluoromethyl)phenyl)-2-fluoro-5-((3-(2-(methylamino)-4-pyrimidinyl)-2-pyridinyl)oxy)benzamide] was tested, and the IC50 was < 5 µM.
In the case of CNc1ncnc(-c2cccnc2Oc2ccc(F)c(C(=O)Nc3cc(C(F)(F)F)ccc3CN(C)C)c2)n1 [Example 535, N-(2-((dimethylamino)methyl)-5-(trifluoromethyl)phenyl)-2-fluoro-5-((3-(4-(methylamino)-1,3,5-triazin-2-yl)-2-pyridinyl)oxy)benzamide], the IC50 is reported as < 5 µM.
In the case of CNc1nccc(-c2cccnc2Oc2ccc(F)c(C(=O)Nc3cc(CN4CCN(C)CC4)cc(C(F)(F)F)c3)c2)n1 [Example 536, 2-fluoro-5-((3-(2-(methylamino)-4-pyrimidinyl)-2-pyridinyl)oxy)-N-(3-((4-methyl-1-piperazinyl)methyl)-5-(trifluoromethyl)phenyl) benzamide], the IC50 is reported as < 5 µM.

— US8476434B2, “Protein kinase modulators and method of use” (Amgen Inc., priority 2004, dated 2013)
